{"source": "PubChem BioAssay AID652259 | Drosophila RNAi Screening Center | 2013", "purpose": "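Knock-downs that push a Wingless-driven reporter up or down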 (primary screen)", "cell system": "Drosophila clone 8 imaginal disc epithelial cells", "reagents": "long dsRNA against Drosophila genes", "challenge": "pathway stimulated by co-transfected Wingless expression plasmid", "measured": "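Dual luciferase reads per well after Wingless plasmid stimulation: reporter firefly light and Renilla control light; activity is firefly divided by Renilla, a ratio not deposited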", "direction": "firefly reporter light: higher = more Wg reporter light, before normalisation; Renilla control light: higher = more transfected or surviving cells", "call rule": "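a knock-down is a candidate when at least two out of four statistical tests show it departing from its plate mean; one test alone signals a weak candidate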", "calls": "active = candidate regulator (raises or lowers reporter); inactive = not a candidate", "note": "In all, the deposit lists about 22,000 reagents; shown is an unselected part of those with a known target gene and a result. In the full data, 233 (1.1%) got an active call. 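Light values are raw, unnormalised plate reads; the ratio scores behind the reporter calls were not deposited.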 Entries without a mark were called inactive. Not stated in the record: the amount of reagent, the time to read-out, the dose of the treatment."}
{"gene": "CG13566", "dsRNA": "DRSC04203", "firefly reporter light, replicate 1": 1808, "firefly reporter light, replicate 2": 5156, "Renilla control light, replicate 1": 562, "Renilla control light, replicate 2": 1734}
{"gene": "CG4815", "dsRNA": "DRSC15653", "firefly reporter light, replicate 1": 6071, "Renilla control light, replicate 1": 3064}
{"gene": "Klp54D (Kinesin-like protein at 54D)", "dsRNA": "DRSC07450", "firefly reporter light, replicate 1": 6247, "Renilla control light, replicate 1": 3043}
{"gene": "synr (sayonara)", "dsRNA": "DRSC02369", "firefly reporter light, replicate 1": 3776, "firefly reporter light, replicate 2": 4916, "Renilla control light, replicate 1": 1783, "Renilla control light, replicate 2": 1052}
{"gene": "CG6414", "dsRNA": "DRSC18401", "firefly reporter light, replicate 1": 13991, "Renilla control light, replicate 1": 6960}
{"gene": "hiw (highwire)", "dsRNA": "DRSC20338", "firefly reporter light, replicate 1": 33605, "Renilla control light, replicate 1": 10477}
{"gene": "hiw (highwire)", "dsRNA": "DRSC20339", "firefly reporter light, replicate 1": 25105, "Renilla control light, replicate 1": 7705}
{"gene": "ppk25 (pickpocket 25)", "dsRNA": "DRSC04973", "firefly reporter light, replicate 1": 2544, "firefly reporter light, replicate 2": 6651, "Renilla control light, replicate 1": 797, "Renilla control light, replicate 2": 2800}
{"gene": "CalpA (Calpain-A)", "dsRNA": "DRSC07352", "firefly reporter light, replicate 1": 4621, "Renilla control light, replicate 1": 2009}
{"gene": "Ufl1 (UFM1 specific ligase 1)", "dsRNA": "DRSC12527", "firefly reporter light, replicate 1": 4874, "Renilla control light, replicate 1": 1794}
{"gene": "CG31016", "dsRNA": "DRSC21359", "firefly reporter light, replicate 1": 6.10e5, "firefly reporter light, replicate 2": 6.46e5, "Renilla control light, replicate 1": 2.71e5, "Renilla control light, replicate 2": 2.76e5}
{"gene": "CG13022", "dsRNA": "DRSC09902", "firefly reporter light, replicate 1": 7027, "Renilla control light, replicate 1": 3088}
{"gene": "CG16964", "dsRNA": "DRSC02546", "firefly reporter light, replicate 1": 2640, "firefly reporter light, replicate 2": 5468, "Renilla control light, replicate 1": 1064, "Renilla control light, replicate 2": 3200}
{"gene": "CG17597", "dsRNA": "DRSC02630", "firefly reporter light, replicate 1": 7833, "Renilla control light, replicate 1": 1644}
{"gene": "CG15631", "dsRNA": "DRSC00466", "firefly reporter light, replicate 1": 1629, "firefly reporter light, replicate 2": 5574, "Renilla control light, replicate 1": 868, "Renilla control light, replicate 2": 2517}
{"gene": "l(1)G0289 (lethal (1) G0289)", "dsRNA": "DRSC18215", "firefly reporter light, replicate 1": 2992, "firefly reporter light, replicate 2": 5408, "Renilla control light, replicate 1": 1179, "Renilla control light, replicate 2": 2096}
{"gene": "fwd (four wheel drive)", "dsRNA": "DRSC08580", "firefly reporter light, replicate 1": 10435, "Renilla control light, replicate 1": 2605}
{"gene": "mtt (mangetout)", "dsRNA": "DRSC05106", "firefly reporter light, replicate 1": 33959, "Renilla control light, replicate 1": 9786}
{"gene": "mtt (mangetout)", "dsRNA": "DRSC05107", "firefly reporter light, replicate 1": 13178, "Renilla control light, replicate 1": 9200}
{"gene": "mtt (mangetout)", "dsRNA": "DRSC06753", "firefly reporter light, replicate 1": 2660, "firefly reporter light, replicate 2": 4690, "Renilla control light, replicate 1": 1212, "Renilla control light, replicate 2": 2441}
{"gene": "mtt (mangetout)", "dsRNA": "DRSC07235", "firefly reporter light, replicate 1": 3206, "firefly reporter light, replicate 2": 6208, "Renilla control light, replicate 1": 965, "Renilla control light, replicate 2": 2615}
{"gene": "CG12688 (retired record)", "dsRNA": "DRSC17877", "firefly reporter light, replicate 1": 17867, "Renilla control light, replicate 1": 7812}
{"gene": "CG12688 (retired record)", "dsRNA": "DRSC17878", "firefly reporter light, replicate 1": 22283, "Renilla control light, replicate 1": 7543}
{"gene": "CG17648", "dsRNA": "DRSC00508", "firefly reporter light, replicate 1": 923, "firefly reporter light, replicate 2": 5973, "Renilla control light, replicate 1": 609, "Renilla control light, replicate 2": 2480}
{"gene": "insc (inscuteable)", "dsRNA": "DRSC04695", "firefly reporter light, replicate 1": 2640, "firefly reporter light, replicate 2": 6416, "Renilla control light, replicate 1": 1107, "Renilla control light, replicate 2": 3386}
